# Values quoted from earlier work in PMC3100183 (Biochemistry, 2011).
# pKi: −log10 of the molar value.
# Tested on: EET binding site/receptor on U937 cell membranes
# Conditions: read-out: Ki, inhibition of 20-125I-14,15-EE5ZE binding; cited from earlier work
compound,measurement,value
Clc1ccc(COC(Cn2ccnc2)c2ccc(Cl)cc2Cl)c(Cl)c1 (stereo not shown) [miconazole],pKi,6.46
